Measured values: article PMC7430099
Residue numbers refer to the chain shown, from its start. Results are given in words; binding and its absence hold for the method and conditions named. Binding seen in cells or lysates may run through a third protein. Binding calls can cover weak binding; strength is not graded here.

By UniProt entry, the sequences of proteins in these tests, tags left out.
UniProt P35351: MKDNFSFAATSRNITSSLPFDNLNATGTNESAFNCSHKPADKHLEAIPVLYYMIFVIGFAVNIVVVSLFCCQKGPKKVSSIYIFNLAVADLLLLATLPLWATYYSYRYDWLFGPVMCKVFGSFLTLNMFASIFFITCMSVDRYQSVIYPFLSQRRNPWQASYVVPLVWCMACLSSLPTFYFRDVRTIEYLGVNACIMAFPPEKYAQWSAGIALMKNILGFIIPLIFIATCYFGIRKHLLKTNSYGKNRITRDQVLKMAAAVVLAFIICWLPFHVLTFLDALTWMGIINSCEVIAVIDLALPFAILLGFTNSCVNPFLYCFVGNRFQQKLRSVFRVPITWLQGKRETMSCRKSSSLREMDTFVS

Columns and labels:
[1] = target: T1, AT2 receptor, endogenous in mouse striatal primary cultures (mouse (endogenous in primary striatal microglia)) (UniProt P35374); test: proximity ligation; in situ PLA on fixed, permeabilised mouse striatal primary microglia, resting or activated with LPS + IFN-γ; mouse anti-AT1R and rabbit anti-AT2R primary antibodies, Duolink probes, confocal microscopy
T1 sequence: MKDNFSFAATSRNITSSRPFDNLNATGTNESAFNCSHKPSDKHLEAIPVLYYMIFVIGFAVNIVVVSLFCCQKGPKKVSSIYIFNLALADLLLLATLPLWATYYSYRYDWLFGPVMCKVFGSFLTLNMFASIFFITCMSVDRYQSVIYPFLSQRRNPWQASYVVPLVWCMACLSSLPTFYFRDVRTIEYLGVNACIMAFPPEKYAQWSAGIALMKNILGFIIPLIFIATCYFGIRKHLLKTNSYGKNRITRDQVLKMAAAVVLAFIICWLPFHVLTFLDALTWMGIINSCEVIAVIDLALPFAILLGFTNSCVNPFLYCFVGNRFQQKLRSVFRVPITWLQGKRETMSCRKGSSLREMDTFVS

[2] = target: T2, AT2 receptor, endogenous in rat striatum (rat (endogenous in striatal sections)) (UniProt P35351); test: proximity ligation; in situ PLA on 40-μm striatal sections of rats: non-lesioned, 6-OH-dopamine lesioned, lesioned plus L-DOPA dyskinetic, lesioned plus L-DOPA non-dyskinetic; mouse anti-AT1R and rabbit anti-AT2R primary antibodies, Duolink probes, confocal microscopy
T2 sequence: T1 sequence with R18L, S40A, L88V, G352S

| Substance | binding [1] | binding [2] |
| --- | --- | --- |
| AT1 receptor, endogenous in mouse striatal primary cultures | binds | – |
| AT1 receptor, endogenous in rat striatum | – | binds |
